Reference: the supplement of paper PMC7666118
The list shows a part of the results.

Protein sequences, listed by entry. Tags and fused reporters are not part of them. Lines headed by an entry give the natural chain unless they say otherwise; changes in a name come on top.
UniProt Q86XI2: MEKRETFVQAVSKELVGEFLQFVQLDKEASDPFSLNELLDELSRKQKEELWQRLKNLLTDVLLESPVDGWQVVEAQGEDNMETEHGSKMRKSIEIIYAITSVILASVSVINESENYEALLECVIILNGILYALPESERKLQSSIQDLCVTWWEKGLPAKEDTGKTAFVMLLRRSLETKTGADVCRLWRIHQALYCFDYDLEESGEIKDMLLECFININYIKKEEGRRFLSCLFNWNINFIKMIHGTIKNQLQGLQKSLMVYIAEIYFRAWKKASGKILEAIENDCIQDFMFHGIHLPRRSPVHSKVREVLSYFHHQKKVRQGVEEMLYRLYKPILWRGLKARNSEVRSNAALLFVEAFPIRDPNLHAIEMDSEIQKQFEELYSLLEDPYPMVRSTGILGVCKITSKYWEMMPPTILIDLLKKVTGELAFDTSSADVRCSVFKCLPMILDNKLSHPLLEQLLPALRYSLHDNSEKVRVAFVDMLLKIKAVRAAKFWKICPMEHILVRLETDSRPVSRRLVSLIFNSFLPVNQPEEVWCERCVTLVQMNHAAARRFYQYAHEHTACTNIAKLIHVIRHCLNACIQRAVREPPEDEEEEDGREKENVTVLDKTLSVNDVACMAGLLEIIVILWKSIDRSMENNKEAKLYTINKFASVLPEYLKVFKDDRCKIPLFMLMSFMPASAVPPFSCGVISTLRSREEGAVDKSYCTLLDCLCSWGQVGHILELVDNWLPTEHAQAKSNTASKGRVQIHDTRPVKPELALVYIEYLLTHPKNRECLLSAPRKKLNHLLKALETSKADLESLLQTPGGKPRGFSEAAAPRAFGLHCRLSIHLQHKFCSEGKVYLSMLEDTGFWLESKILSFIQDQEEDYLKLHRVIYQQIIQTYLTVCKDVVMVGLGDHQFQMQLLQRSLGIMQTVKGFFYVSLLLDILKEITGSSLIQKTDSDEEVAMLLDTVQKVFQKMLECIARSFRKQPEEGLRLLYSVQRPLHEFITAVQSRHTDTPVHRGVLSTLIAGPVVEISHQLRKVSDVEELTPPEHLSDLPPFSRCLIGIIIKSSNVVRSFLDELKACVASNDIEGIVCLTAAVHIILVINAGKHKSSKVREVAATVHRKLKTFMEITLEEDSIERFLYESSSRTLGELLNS
UniProt Q9NYA4: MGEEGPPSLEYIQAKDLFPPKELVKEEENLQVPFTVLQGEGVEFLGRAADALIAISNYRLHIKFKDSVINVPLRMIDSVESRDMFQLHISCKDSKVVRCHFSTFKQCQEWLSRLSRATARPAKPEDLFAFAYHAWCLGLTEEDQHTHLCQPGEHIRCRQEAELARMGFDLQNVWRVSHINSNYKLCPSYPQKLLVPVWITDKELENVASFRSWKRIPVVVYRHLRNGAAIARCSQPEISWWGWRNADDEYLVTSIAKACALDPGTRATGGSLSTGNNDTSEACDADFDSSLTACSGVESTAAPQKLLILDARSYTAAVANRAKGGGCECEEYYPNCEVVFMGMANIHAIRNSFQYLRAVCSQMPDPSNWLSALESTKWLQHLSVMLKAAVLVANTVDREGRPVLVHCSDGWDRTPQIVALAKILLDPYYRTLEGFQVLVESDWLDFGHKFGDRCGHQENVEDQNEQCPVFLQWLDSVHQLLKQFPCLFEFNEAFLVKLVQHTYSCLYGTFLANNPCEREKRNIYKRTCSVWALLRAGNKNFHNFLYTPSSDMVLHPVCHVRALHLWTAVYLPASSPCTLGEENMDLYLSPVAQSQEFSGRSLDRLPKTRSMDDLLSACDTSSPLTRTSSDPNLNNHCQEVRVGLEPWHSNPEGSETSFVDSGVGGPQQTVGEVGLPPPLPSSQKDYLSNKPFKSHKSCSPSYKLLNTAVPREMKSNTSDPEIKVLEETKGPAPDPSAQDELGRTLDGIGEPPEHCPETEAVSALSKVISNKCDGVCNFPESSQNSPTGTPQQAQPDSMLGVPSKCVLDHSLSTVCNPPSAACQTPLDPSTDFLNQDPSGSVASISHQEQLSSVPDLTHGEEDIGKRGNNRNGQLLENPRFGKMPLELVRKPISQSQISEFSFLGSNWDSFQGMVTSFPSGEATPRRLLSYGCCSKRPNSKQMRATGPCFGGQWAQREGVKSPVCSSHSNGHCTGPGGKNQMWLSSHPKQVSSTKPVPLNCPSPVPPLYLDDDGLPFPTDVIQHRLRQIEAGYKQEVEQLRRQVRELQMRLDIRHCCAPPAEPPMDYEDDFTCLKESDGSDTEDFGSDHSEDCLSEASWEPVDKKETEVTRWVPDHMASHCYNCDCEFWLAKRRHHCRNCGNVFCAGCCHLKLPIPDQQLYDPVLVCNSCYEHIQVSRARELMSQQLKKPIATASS
UniProt P13995: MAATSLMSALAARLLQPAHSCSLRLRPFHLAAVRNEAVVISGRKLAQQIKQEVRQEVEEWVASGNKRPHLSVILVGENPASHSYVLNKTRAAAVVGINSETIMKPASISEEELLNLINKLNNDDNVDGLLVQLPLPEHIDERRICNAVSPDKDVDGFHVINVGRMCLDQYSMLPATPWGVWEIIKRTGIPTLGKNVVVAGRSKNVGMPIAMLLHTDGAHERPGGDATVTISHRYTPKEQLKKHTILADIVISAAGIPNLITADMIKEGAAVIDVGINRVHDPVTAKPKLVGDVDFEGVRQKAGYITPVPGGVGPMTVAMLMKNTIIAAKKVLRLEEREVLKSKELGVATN
UniProt P35580, whole entry: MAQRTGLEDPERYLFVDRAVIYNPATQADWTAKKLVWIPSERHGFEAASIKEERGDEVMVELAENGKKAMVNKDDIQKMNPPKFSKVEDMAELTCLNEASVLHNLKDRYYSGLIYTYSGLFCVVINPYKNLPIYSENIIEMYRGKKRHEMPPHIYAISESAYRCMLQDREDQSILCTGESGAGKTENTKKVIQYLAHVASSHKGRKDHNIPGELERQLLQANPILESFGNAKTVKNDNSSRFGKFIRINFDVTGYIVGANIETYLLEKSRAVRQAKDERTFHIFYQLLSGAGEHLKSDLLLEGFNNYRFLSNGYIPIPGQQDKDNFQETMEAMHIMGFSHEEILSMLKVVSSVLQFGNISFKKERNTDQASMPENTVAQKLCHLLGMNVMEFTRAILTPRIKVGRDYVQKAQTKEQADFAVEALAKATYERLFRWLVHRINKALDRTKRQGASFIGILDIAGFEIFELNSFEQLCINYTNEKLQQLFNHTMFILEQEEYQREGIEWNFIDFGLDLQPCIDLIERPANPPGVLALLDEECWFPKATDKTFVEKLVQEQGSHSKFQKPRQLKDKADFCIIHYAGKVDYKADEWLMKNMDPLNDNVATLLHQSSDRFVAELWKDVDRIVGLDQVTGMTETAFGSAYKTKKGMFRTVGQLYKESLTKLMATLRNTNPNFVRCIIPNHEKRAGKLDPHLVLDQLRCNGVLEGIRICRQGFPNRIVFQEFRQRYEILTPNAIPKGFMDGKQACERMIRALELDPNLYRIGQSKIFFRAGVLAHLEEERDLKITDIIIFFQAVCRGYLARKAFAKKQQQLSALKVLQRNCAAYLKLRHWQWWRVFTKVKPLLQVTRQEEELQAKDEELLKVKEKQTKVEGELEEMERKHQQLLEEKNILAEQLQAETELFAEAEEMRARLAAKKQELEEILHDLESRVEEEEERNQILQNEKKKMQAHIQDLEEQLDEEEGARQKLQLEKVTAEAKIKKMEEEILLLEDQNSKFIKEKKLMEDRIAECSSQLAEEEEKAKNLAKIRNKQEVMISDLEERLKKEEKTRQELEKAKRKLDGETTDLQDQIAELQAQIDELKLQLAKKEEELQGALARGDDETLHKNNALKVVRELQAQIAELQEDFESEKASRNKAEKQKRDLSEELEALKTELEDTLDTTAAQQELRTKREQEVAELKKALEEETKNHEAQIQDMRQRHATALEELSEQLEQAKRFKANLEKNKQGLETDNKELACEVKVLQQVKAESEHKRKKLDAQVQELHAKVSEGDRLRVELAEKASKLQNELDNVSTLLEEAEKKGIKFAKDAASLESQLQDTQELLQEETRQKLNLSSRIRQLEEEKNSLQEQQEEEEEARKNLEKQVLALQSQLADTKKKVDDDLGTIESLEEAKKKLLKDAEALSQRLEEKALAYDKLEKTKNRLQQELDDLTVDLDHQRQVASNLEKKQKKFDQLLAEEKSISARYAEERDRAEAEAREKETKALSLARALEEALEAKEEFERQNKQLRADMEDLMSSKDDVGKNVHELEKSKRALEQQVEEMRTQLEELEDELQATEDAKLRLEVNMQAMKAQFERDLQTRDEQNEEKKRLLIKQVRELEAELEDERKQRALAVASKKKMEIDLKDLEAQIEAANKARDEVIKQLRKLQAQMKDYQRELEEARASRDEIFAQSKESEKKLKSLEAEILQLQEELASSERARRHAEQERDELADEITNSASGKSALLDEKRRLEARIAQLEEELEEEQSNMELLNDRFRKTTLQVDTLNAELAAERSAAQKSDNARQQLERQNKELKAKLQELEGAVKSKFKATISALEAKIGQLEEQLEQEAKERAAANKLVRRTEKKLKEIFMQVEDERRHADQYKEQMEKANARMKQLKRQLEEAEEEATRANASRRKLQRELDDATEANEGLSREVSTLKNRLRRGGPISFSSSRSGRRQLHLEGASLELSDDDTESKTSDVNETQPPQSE
UniProt O43181, whole entry: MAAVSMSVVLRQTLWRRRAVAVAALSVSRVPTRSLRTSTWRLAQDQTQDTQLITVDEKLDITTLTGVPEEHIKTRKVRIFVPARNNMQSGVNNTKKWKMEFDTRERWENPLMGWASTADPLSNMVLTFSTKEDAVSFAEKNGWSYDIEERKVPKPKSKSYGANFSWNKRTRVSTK
UniProt Q9UK23: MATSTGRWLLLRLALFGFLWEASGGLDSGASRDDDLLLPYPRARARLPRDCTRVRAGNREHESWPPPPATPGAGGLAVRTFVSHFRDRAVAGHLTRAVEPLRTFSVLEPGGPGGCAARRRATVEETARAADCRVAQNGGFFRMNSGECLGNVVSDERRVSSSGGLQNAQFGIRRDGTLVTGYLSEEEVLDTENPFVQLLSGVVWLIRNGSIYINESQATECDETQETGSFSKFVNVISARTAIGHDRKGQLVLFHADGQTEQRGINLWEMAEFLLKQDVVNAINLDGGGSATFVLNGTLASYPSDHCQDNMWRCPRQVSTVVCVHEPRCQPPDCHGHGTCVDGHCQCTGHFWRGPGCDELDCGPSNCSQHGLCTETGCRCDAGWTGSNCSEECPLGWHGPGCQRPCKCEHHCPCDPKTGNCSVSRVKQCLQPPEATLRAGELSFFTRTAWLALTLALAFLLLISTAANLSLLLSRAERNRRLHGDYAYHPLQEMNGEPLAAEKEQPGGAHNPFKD
UniProt P30419: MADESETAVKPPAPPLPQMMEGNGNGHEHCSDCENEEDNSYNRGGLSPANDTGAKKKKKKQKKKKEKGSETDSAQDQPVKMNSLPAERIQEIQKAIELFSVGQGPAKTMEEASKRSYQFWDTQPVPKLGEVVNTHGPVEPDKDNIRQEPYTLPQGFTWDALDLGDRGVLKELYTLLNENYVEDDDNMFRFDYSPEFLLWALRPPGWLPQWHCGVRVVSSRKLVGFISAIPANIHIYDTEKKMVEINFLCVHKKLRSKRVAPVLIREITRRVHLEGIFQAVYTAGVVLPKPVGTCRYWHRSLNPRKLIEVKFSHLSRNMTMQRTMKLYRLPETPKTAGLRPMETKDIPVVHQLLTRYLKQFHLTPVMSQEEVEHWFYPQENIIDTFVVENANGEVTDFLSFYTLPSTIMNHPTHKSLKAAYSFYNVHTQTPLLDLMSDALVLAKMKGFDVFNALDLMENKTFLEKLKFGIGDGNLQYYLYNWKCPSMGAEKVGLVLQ
UniProt O15226: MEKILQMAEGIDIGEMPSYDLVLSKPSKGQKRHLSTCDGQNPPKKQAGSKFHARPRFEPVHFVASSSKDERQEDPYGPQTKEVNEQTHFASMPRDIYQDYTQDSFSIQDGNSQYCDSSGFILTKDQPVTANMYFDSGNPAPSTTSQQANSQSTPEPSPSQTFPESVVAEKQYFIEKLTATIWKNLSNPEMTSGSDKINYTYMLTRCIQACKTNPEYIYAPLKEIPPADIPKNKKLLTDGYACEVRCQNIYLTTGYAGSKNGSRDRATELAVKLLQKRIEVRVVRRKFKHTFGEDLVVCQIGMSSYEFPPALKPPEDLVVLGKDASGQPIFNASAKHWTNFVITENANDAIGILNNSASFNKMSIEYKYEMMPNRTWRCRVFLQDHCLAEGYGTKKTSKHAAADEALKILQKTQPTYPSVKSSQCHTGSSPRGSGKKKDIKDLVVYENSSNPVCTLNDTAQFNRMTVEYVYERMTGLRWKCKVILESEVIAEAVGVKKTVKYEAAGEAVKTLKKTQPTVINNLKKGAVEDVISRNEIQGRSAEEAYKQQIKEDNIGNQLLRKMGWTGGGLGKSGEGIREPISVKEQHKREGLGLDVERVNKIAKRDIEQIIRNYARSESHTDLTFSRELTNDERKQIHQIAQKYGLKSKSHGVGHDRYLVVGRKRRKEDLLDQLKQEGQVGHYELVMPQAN

compound: COc1ccc(Cn2ccc3ccc(C(=O)NO)cc32)cc1; test: dose-dependent thermal stabilisation call (2D-TPP, DLPTP, 10% FDR) (binary (1 = stabilised)); higher = stabilised by the compound; settings: system: HL-60 intact cells; concentration range 0.04-10 µM

Target	dose-dependent thermal stabilisation call
MYO18A	inactive: 0
NASP (UniProt P49321)	inactive: 0
NCAPG2 (UniProt Q86XI2)	inactive: 0
NP (UniProt P00491)	inactive: 0
MYEF2 (UniProt Q9P2K5)	inactive: 0
NCOA4 (UniProt Q13772)	inactive: 0
NBEAL2 (UniProt Q6ZNJ1)	inactive: 0
NDUFA9 (UniProt Q16795)	inactive: 0
NDUFA6 (UniProt P56556)	inactive: 0
MTMR4 (UniProt Q9NYA4)	inactive: 0
MTHFD2 (UniProt P13995)	inactive: 0
MTSS1L (UniProt Q765P7)	inactive: 0
NMNAT1 (UniProt Q9HAN9)	inactive: 0
MYH10 (UniProt P35580)	inactive: 0
NDUFS4 (UniProt O43181)	inactive: 0
NAP1L4 (UniProt Q99733)	inactive: 0
NAGPA (UniProt Q9UK23)	inactive: 0
NDNL2 (UniProt Q96MG7)	inactive: 0
MTG1 (UniProt Q9BT17)	inactive: 0

Random excerpt: 2 records from the list, in no set order.
Target	dose-dependent thermal stabilisation call
NAGPA (UniProt Q9UK23)	inactive: 0
MYEF2 (UniProt Q9P2K5)	inactive: 0

Remaining list, next part:

Target	dose-dependent thermal stabilisation call
NDUFS5 (UniProt O43920)	inactive: 0
NOP14 (UniProt P78316)	inactive: 0
MUT (UniProt P22033)	inactive: 0
MRPS6 (UniProt P82932)	inactive: 0
NDUFC2 (UniProt O95298)	inactive: 0
MTA3 (UniProt Q9BTC8)	inactive: 0
MTMR9 (UniProt Q96QG7)	inactive: 0
NIPA2 (UniProt Q8N8Q9)	inactive: 0
NMI (UniProt Q13287)	inactive: 0
NCKIPSD (UniProt Q9NZQ3)	inactive: 0
ND2 (UniProt P03891)	inactive: 0
NME1-NME2 (UniProt P15531)	inactive: 0
N6AMT2 (UniProt Q8WVE0)	inactive: 0
NMT1 (UniProt P30419)	inactive: 0
NEU3 (UniProt Q9UQ49)	inactive: 0
NKRF (UniProt O15226)	inactive: 0
MTR (UniProt Q99707)	inactive: 0
NEDD4 (UniProt P46934)	inactive: 0
NOL9 (UniProt Q5SY16)	inactive: 0
